Measured values as given in the supplement of paper PMC6078165.
± gives the standard deviation of the averaged measurements. Values are relative to the signal before dosing, not to a vehicle control; the signal also falls without drug.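 Fibroblast labels denote human fibroblasts, mainly primary ones from uterus (C12385, HUF), lung (H6013), bone (Hs27A), adrenal (HADF) and skin (WS1), plus mammary HMF and breast cancer-associated Hs343T. Cancer cells are basal-like or mesenchymal-like triple-negative breast cancer lines. A hit is a response shift exceeding 3x replicate standard deviation. The tissue of the other fibroblasts is not given here.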

Tested on: MDAMB468
Test: relative JC-1 red fluorescence (viability) vs pre-drug, coculture with fibroblast (fraction); higher = more viable cancer cells
Method: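 JC-1 labelled TNBC cells cocultured 1:1 (1,500 cells each) with CellTrace Violet stained primary or stromal fibroblasts in 384-well plates in FluoroBrite medium, treated with one of 42 anticancer drugs at 0.1, 1, 10 or 100 uM. JC-1 red fluorescence (mitochondrial integrity in cancer cells only) was read by plate reader every 8 h for 72 h. Values are normalised to each well's pre-drug value. The stock of one drug was tenfold lower, so its dose labels may be too high.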

C#Cc1cccc(Nc2ncnc3cc(OCCOC)c(OCCOC)cc23)c1 [Erlotinib]
relative JC-1 red fluorescence
Settings	8 h	16 h	24 h	32 h	40 h	48 h	56 h	64 h	72 h
10 µM, coculture fibroblast: C12385	0.915 ± 0.014	0.8662 ± 0.0025	0.8378 ± 0.0058	0.7842 ± 0.0032	0.761 ± 0.0082	0.74 ± 0.0026	0.708 ± 0.0084	0.676 ± 0.013	0.6572 ± 0.0036
10 µM, coculture fibroblast: H6013	0.875 ± 0.013	0.845 ± 0.022	0.814 ± 0.011	0.8344 ± 0.003	0.808 ± 0.012	0.832 ± 0.018	0.812 ± 0.0089	0.805 ± 0.013	0.781 ± 0.015
10 µM, coculture fibroblast: H6019	0.854 ± 0.016	0.833 ± 0.029	0.827 ± 0.059	0.786 ± 0.041	0.741 ± 0.033	0.731 ± 0.035	0.694 ± 0.038	0.666 ± 0.042	0.655 ± 0.039
10 µM, coculture fibroblast: H6076	0.923 ± 0.0093	0.938 ± 0.054	0.9436 ± 0.0067	0.959 ± 0.0091	0.925 ± 0.023	0.9256 ± 0.0089	0.8908 ± 0.0057	0.8843 ± 0.0067	0.9327 ± 0.003
10 µM, coculture fibroblast: H6231	0.8421 ± 0.0081	0.9723 ± 0.0013	0.877 ± 0.02	0.847 ± 0.033	0.841 ± 0.041	0.823 ± 0.042	0.779 ± 0.03	0.766 ± 0.049	0.765 ± 0.046
10 µM, coculture fibroblast: HADF	0.888 ± 0.024	0.876 ± 0.023	0.841 ± 0.037	0.862 ± 0.062	0.809 ± 0.062	0.802 ± 0.049	0.773 ± 0.062	0.755 ± 0.061	0.73 ± 0.083
10 µM, coculture fibroblast: HCFa	0.8747 ± 0.0028	0.8338 ± 0.0078	0.7987 ± 0.0013	0.777 ± 0.016	0.727 ± 0.02	0.738 ± 0.03	0.703 ± 0.036	0.685 ± 0.029	0.651 ± 0.031
10 µM, coculture fibroblast: HCPF	0.8775 ± 0.0081	0.964 ± 0.039	0.948 ± 0.043	0.929 ± 0.052	0.906 ± 0.043	0.889 ± 0.035	0.847 ± 0.025	0.847 ± 0.018	0.8069 ± 0.0038
10 µM, coculture fibroblast: HHSteC	0.898 ± 0.017	0.895 ± 0.01	0.877 ± 0.0091	0.883 ± 0.023	0.85 ± 0.01	0.856 ± 0.021	0.8 ± 0.021	0.781 ± 0.016	0.749 ± 0.0093
10 µM, coculture fibroblast: HMF	0.825 ± 0.0099	0.722 ± 0.04	0.9768 ± 0.0054	0.952 ± 0.013	0.93197 ± 0.00079	0.9269 ± 0.0082	0.876 ± 0.023	0.871 ± 0.031	0.837 ± 0.026
10 µM, coculture fibroblast: HPFa	0.9183 ± 0.009	0.892 ± 0.028	0.877 ± 0.03	0.843 ± 0.029	0.814 ± 0.049	0.827 ± 0.038	0.768 ± 0.052	0.748 ± 0.05	0.695 ± 0.058
10 µM, coculture fibroblast: HUF	0.9376 ± 0.0066	0.8911 ± 0.0026	0.857 ± 0.016	0.808 ± 0.022	0.77 ± 0.012	0.734 ± 0.018	0.694 ± 0.014	0.6827 ± 0.0027	0.6543 ± 0.0034
10 µM, coculture fibroblast: Hs5	0.7405 ± 0.0033	0.823 ± 0.15	0.9804 ± 0.0089	0.94 ± 0.019	0.898 ± 0.012	0.872 ± 0.021	0.848 ± 0.027	0.824 ± 0.039	0.834 ± 0.047
10 µM, coculture fibroblast: Hs27A	0.866 ± 0.018	0.8424 ± 0.0084	0.7881 ± 0.0069	0.8082 ± 0.0015	0.74 ± 0.011	0.728 ± 0.016	0.695 ± 0.019	0.666 ± 0.021	0.628 ± 0.014
10 µM, coculture fibroblast: Hs343T	0.858 ± 0.013	0.872 ± 0.1	0.911 ± 0.034	0.883 ± 0.037	0.855 ± 0.033	0.846 ± 0.033	0.799 ± 0.027	0.791 ± 0.036	0.767 ± 0.042
10 µM, coculture fibroblast: WS1	0.913 ± 0.014	0.8573 ± 0.0061	0.8352 ± 0.0047	0.799 ± 0.018	0.765 ± 0.022	0.735 ± 0.048	0.711 ± 0.036	0.672 ± 0.049	0.658 ± 0.048
100 µM, coculture fibroblast: C12385	0.968 ± 0.043	0.848 ± 0.12	0.89 ± 0.052	0.85 ± 0.086	0.939 ± 0.077	0.807 ± 0.13	0.931 ± 0.093	0.925 ± 0.09	0.923 ± 0.083
100 µM, coculture fibroblast: H6013	0.93 ± 0.037	0.955 ± 0.06	0.937 ± 0.076	0.801 ± 0.086	0.89872 ± 0.00076	0.814 ± 0.15	0.863 ± 0.1	0.847 ± 0.14	0.95 ± 0.061
100 µM, coculture fibroblast: H6019	0.889 ± 0.022	0.894 ± 0.047	0.888 ± 0.046	0.877 ± 0.051	0.862 ± 0.051	0.873 ± 0.045	0.851 ± 0.054	0.849 ± 0.054	0.842 ± 0.053
100 µM, coculture fibroblast: H6076	0.948 ± 0.044	0.9329 ± 0.0058	0.881 ± 0.044	0.884 ± 0.042	0.92 ± 0.07	0.932 ± 0.072	0.927 ± 0.074	0.934 ± 0.08	0.832 ± 0.12
100 µM, coculture fibroblast: H6231	0.873 ± 0.013	0.955 ± 0.051	0.909 ± 0.056	0.911 ± 0.027	0.875 ± 0.04	0.874 ± 0.044	0.84 ± 0.045	0.838 ± 0.05	0.845 ± 0.052
100 µM, coculture fibroblast: HADF	0.973 ± 0.014	0.749 ± 0.049	0.966 ± 0.021	0.877 ± 0.15	0.937 ± 0.078	0.807 ± 0.1	0.917 ± 0.1	0.762 ± 0.012	0.9 ± 0.1
100 µM, coculture fibroblast: HCFa	0.915 ± 0.021	0.862 ± 0.14	0.882 ± 0.12	0.833 ± 0.19	0.819 ± 0.15	0.846 ± 0.12	0.808 ± 0.16	0.9173 ± 0.0066	0.803 ± 0.13
100 µM, coculture fibroblast: HCPF	0.932 ± 0.031	0.901 ± 0.11	0.941 ± 0.016	0.886 ± 0.12	0.963 ± 0.017	0.9537 ± 0.0079	0.931 ± 0.0047	0.9339 ± 0.0069	0.934 ± 0.02
100 µM, coculture fibroblast: HHSteC	0.951 ± 0.061	0.90519 ± 0.00024	0.792 ± 0.14	0.821 ± 0.07	0.841 ± 0.059	0.853 ± 0.064	0.832 ± 0.04	0.8406 ± 0.0032	0.911 ± 0.13
100 µM, coculture fibroblast: HMF	0.932 ± 0.023	0.862 ± 0.065	0.979 ± 0.019	0.958 ± 0.029	0.889 ± 0.013	0.886 ± 0.012	0.8555 ± 0.0033	0.8493 ± 0.0047	0.8527 ± 0.006
100 µM, coculture fibroblast: HPFa	0.9467 ± 0.0032	0.9648 ± 0.0057	0.94 ± 0.011	0.914 ± 0.0062	0.896 ± 0.02	0.913 ± 0.02	0.858 ± 0.044	0.856 ± 0.062	0.785 ± 0.073
100 µM, coculture fibroblast: HUF	0.94374 ± 0.00054	0.889 ± 0.012	0.871 ± 0.029	0.839 ± 0.027	0.807 ± 0.053	0.785 ± 0.034	0.753 ± 0.049	0.738 ± 0.036	0.728 ± 0.026
100 µM, coculture fibroblast: Hs5	0.865 ± 0.17	0.981 ± 0.019	0.966 ± 0.021	0.96 ± 0.012	0.928 ± 0.014	0.91 ± 0.012	0.902 ± 0.05	0.894 ± 0.05	0.925 ± 0.063
100 µM, coculture fibroblast: Hs27A	0.9062 ± 0.0056	0.947 ± 0.011	0.885 ± 0.014	0.901 ± 0.0052	0.8557 ± 0.001	0.8634 ± 0.0068	0.829 ± 0.011	0.818 ± 0.015	0.787 ± 0.02
100 µM, coculture fibroblast: Hs343T	0.8917 ± 0.0022	0.96 ± 0.043	0.9584 ± 0.0089	0.9308 ± 0.00096	0.864 ± 0.015	0.856 ± 0.019	0.8176 ± 0.008	0.8038 ± 0.0035	0.7887 ± 0.0014
100 µM, coculture fibroblast: WS1	0.943 ± 0.013	0.922 ± 0.032	0.944 ± 0.072	0.906 ± 0.087	0.889 ± 0.11	0.851 ± 0.079	0.821 ± 0.056	0.831 ± 0.078	0.83 ± 0.073
